No constants are given. Whether binding was seen depends on the method and setting. Binding seen in cells or lysates may run through a third protein. A yes stands for co-enrichment or nearness to the bait. Other partners may have been found.
Each molecule was assayed against Microtubule-actin cross-linking factor 1 (MACF1) (mouse (endogenous in MC3T3-E1 and in mouse MSCs)) (UniProt Q9QXZ0) (assay: affinity purification with mass spectrometry).

Protein sequences, listed by entry. Tags and fused reporters are not part of them.
UniProt O35185: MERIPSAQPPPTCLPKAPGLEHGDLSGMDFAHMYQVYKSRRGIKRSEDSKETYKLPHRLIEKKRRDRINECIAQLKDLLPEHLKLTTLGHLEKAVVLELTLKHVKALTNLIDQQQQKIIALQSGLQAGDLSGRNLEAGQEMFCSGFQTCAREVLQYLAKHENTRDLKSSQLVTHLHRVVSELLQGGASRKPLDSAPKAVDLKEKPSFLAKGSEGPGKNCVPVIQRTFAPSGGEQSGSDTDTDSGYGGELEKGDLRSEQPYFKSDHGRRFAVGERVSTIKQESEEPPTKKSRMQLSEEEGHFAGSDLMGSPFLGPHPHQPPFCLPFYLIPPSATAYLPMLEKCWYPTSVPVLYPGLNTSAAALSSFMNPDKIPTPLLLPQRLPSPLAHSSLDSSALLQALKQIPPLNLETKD
UniProt P15307: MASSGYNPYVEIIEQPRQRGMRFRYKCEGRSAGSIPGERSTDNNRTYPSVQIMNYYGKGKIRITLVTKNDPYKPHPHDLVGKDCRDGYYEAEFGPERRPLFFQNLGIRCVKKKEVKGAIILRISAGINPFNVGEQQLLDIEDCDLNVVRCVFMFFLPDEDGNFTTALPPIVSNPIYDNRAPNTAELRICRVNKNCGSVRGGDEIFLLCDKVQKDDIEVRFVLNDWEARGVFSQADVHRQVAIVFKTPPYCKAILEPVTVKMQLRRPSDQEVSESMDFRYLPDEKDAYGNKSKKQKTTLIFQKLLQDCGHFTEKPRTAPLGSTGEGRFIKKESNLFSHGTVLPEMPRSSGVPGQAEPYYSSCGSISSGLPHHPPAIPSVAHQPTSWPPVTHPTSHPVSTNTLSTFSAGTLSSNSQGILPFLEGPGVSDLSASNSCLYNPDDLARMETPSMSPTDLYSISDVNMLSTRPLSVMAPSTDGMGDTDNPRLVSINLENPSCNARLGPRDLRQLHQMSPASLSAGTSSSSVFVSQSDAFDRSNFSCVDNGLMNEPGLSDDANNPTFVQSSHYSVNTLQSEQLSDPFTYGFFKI
UniProt O35253: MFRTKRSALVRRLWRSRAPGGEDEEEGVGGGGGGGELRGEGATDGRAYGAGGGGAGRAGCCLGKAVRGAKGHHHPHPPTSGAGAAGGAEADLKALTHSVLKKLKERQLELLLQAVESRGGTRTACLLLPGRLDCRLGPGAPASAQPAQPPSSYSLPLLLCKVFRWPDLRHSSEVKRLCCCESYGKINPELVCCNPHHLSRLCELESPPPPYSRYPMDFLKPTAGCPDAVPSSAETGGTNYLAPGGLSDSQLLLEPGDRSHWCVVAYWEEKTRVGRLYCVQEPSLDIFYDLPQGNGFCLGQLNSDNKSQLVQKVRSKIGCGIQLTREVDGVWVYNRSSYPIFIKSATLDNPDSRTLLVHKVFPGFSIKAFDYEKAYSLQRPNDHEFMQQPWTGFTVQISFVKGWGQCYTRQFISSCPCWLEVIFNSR

Molecule | binding
BHLHE40 (from UniProt O35185 1-411) | binds
REL (from UniProt P15307 1-587) | binds
SMAD7 (from UniProt O35253 1-426) | binds
HES1 (protein, UniProt P35428 1-282) MPADIMEKNSSSPVAATPASVNTTPDKPKTASEHRKSSKPIMEKRRRARINESLSQLKTLILDALKKDSSRHSKLEKADILEMTVKHLRNLQRAQMTAALSTDPSVLGKYRAGFSECMNEVTRFLSTCEGVNTEVRTRLLGHLANCMTQINAMTYPGQAHPALQAPPPPPPSGPAGPQHAPFAPPPPPLVPIPGGAAPPPGSAPCKLGSQAGEAAKVFGGFQVVPAPDGQFAFLIPNGAFAHSGPVIPVYTSNSGTSVGPNAVSPSSGSSLTSDSMWRPWRN | binds

From article doi:10.1101/743930
